The text below walks through data of patent US5674676 (dated 1997).

A short description of this data set: general procedure: Fmoc solid-phase peptide synthesis; Wang resin (polystyrene/1% divinylbenzene), 0.50 mmol/g; dicyclohexylcarbodiimide / N-hydroxybenzotriazol. Particulars: whole synthesis.
Where [1] appears, read: RP-HPLC, scale of the general procedure 5 g of Wang resin.

As to H-SRRFAQALPVWARPD-OH, under setting [1], the “crude HPLC purity” value was 31% and the “final HPLC purity” value is on record as 95.2%. The same substance yielded a crude mass (scale 5 g Wang resin) of 2.4 g.
